Out of some 53,000 sequences screened, about 3,700 (7%) were called active.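 How the source made its calls: active means gene knockdowns whose robust z-score for IL-1 alpha signal is at least 2 or at most -2, so actives lie on both sides; inactive means the rest.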 The list shows a part of the results.

The nature of this assay: Components of the Cytosolic LPS Sensing Pathway: Gene Identification via Genome-wide siRNA Screen.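 Further: robust z of the log signal after scaling to non-targeting control siRNA wells of the plate.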 The note with it: RAW264.7 macrophages, IL-1a HTRF, actives lie on both sides, screened at 100 nM (by protocol), cells primed 5 h with Pam3CSK4 first. The method in brief: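 Mouse macrophage line RAW264.7 is transfected with siRNA (100 nM final), grown 48h, primed with TLR ligand Pam3CSK4 5 h and given intracellular LipidA 24 h. IL-1a in supernatant is read by HTRF and viability by luminescence.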
(TR-FRET usually uses a lanthanide donor and a delayed reading to cut background.)
Take GGCAAAAUCUAUUGUCUUCTT against Ran: the z-score was active: -2.2. For GCUAGUCUACCCAAGUGACTT against Dennd6b the value was active: 4.35.

Take GGACUUCCUGACUAUCAUGTT against Tesc: the z-score is inactive: 1.59. With GGCUUAUGUGCAUAAAAGUTT against Magoh the figure was inactive: -0.372; with GCAGCUAGAGGAGUUUCUATT against Clu, inactive: 0.385. For GCCACGAGAAGUGAACCAATT against Smg7 the value was inactive: -1.64; for GGAUGAAACGGGUGCCUAUTT against Kctd5, active: 3.33. With GGGUCAUGUAGGGAUAAAATT against Msrb3 the figure was inactive: -1.53. With GGAAAAAUUCGAGGGACUGTT against Rcan2, the z-score is inactive: 1.12. For GGCGCAUGUUCACAAAGUGTT against Npc1 the value was inactive: 0.155; for GCAGAAGUGUCAAUAAAACTT against Synj2, inactive: -0.0828; for “GGAAGACACUGGUUUCCAATT against 1700067P10Rik”, active: 2.62. With GGGCAAGAUGUUUUUCUUCTT against Mfsd10 the figure was inactive: 0.434. For CCGUGGCAUGUUCAUGAAATT against Mpg, the z-score was inactive: 0.181. With CCACUAUUCUUAACUUGGCTT against Hdac7 the figure was inactive: 0.194; with GCCGCCAUGGACUUACAAGTT against Stim2, inactive: 0.237. For CCUACAAGCAGAGUACAAUTT against Myo10 the value was inactive: 1.06; for GGCGGUGCAGUUCUGUAAATT against Kif18a, inactive: 0.752; for GGAAAUCACUGCACUGGCUTT against Actc1, inactive: 0.931. Consider GGACAAAAAAAUAGAAGGATT against Rrbp1, for which the z-score was inactive: 0.344. On to GGAUAGCACAGCCCUACAUTT against Kcns1, for which the z-score is inactive: -0.197. With GGAGCACGGAAACUUGUUCTT against Metap1 the figure was inactive: 0.799; with GAGAAAACAUGACCUGGGUTT against Olfr456, inactive: -1.07; with GGGUCAAGGUAGUAGUACCTT against Tob1, inactive: 0.275.

With GGCAGUAUAAUUCGUUGUATT against Mtrex, the z-score was inactive: 1.16.

As to CCAUGGUCAUCCCGAUGUUTT against Olfr1454, the z-score is inactive: 0.171. Regarding GGGAAUCUUUGUAAACAGATT against Abhd14b, the z-score was inactive: -0.351. For GGAUCUAUCUCUAGUCCCGTT against Zfp358 the value was inactive: -1.74; for GGAUCUCUGGGUCUGAAAATT against Ccz1, inactive: 0.606; for CCAGCUAAAAAGAUGGUAGTT against Rreb1, inactive: 0.319. For GGACUUCACCAUCUAUAACTT against Vangl1 the value was inactive: -1.04; for “GGAGUAAUCAUGCUGGAGCTT against 9930104L06Rik”, inactive: -0.102; for GAAACUGUAACAGUCUAUATT against Spp1, inactive: 0.951. For GUGAUGUCACUAAUGCCAATT against Cd99 the value was inactive: 0.628; for CGACCUGUUUGAAAACACCTT against Cnn1, inactive: -0.0803; for GGGAGAGAAGCCAUAUAAATT against Zfp7, inactive: -1.47.

Regarding GCCUACAAUCGAGACAGUUTT against Sgca, the z-score was inactive: 1.15. As to GGUCUCUUUAGUUAAGAUGTT against Wrn, the z-score was inactive: -0.149. With GCUAAUGCUGCGUAUUUGCTT against Cops7b the figure was inactive: -0.159. With CCUGACUCUACAUUUUACATT against Tab3 the figure was inactive: -0.581; with GCUACCUAAUGAAGAGGCCTT against Arhgef28, inactive: 0.966; with GGUUACUGGUAAAUGGCAGTT against Olfr1505, inactive: 1.24.

Turning to GGAAGGCUUUCAAGAUUCATT against Gsta1, the z-score was inactive: -0.128.

AACCUGGCUCAUAUCCCAUTT against Retnlg: the z-score is inactive: -0.318. With GGAAGAGGUGAAUGAUAAATT against Bmi1 the figure was inactive: 1.51; with GGCCUCCAAAUGAACAGCATT against Trmt61a, inactive: -0.365. With GGUUUCAGGAAAGAAACAATT against Epb42 the figure was inactive: -0.482; with GGAAAGCUUUCUAUUACAATT against Zfp809, inactive: 0.634.

Consider GGCUGCAUUUCCAAAUGAUTT against Zfp819, for which the z-score is inactive: 0.403.

For the sequence GCAAAUAUUGGCCACUCUCTT against Prpf19, the z-score is inactive: -0.523. On to CCUGCAUGAUUCUUACAUGTT against Mrgprd, for which the z-score was inactive: 1.08.

As to GGUGUUGAGAAGAAAAAUATT against Spz1, the z-score is inactive: 1.68. For GGGUGUUUGCUCAGAGAUGTT against Rtp3 the value was inactive: -0.669.

Turning to GGCAAGUUUGCUAUAACCUTT against Jmy, the z-score was active: -2.57. Consider GGAGUUGAAGUUUGUGACATT against Acpp, for which the z-score is inactive: -1.76.

For the sequence GGAGCUCUUCCAGUUGUUUTT against Khk, the z-score was inactive: -1.51.

For the sequence CCAUAACCACCUGUCAUUGTT against Mrpl55, the z-score is inactive: -1.63.

Consider UUGAACAGUGGAACAAUGATT against Fbxo27, for which the z-score was active: 2.59. For GCCUCCUUUGCUUCAUUUCTT against Fcer1g the value was inactive: 1.83; for CCCAAAAAUUGACAAGUCATT against Batf, inactive: -0.882. In the case of CCAUAUCAGGCAUAGCAGUTT against Nthl1, the z-score was inactive: -0.772.

Consider GGGCGUACUGGAAACACAUTT against Pou3f4, for which the z-score was inactive: 1.84. For GGUACAUUUCUAGCUUUGATT against Nfya, the z-score was inactive: -0.47.

As to GGAAGAGCUUUCUGGAAAUTT against Ndrg2, the z-score is inactive: 0.226.

For GCGGGACCAGGAGUAAACUTT against Pabpn1l, the z-score is inactive: 1.5. For the sequence GGCCUUGAGAGGCUAAUACTT against Spata20, the z-score is inactive: -1.27. For GGUUCAAGUGACCAAGUUCTT against Odf3 the value was inactive: -0.487; for GACAAGCAAUAAAGAAAGATT against Lce1l, inactive: -1.45; for GGAGCUAAGGGAACAAUUATT against Psmc6, active: -2.1.

Source of the values: PubChem BioAssay AID1508600 (Functional Genomics Laboratory (NCATS/FGL), 2020).
